Measurements: patent US20180264103A1 (ELITEIMMUNE, published 2018)
No constants are given. Whether binding was seen depends on the method and setting. Some entries that bind do so weakly or less than the wild type.

Target: RSV-F (Strain RSS-2) (respiratory syncytial virus (Strain RSS-2)) (UniProt P11209)
Test: ELISA, antigen coated on plate, anti-human IgG-HRP detection

B1: fully human anti-RSV monoclonal antibody R66 (antibody, V domains shown)
VH: EVQLVESGGGLVQPGRSLRLSCTASGFTFADYSMTWVRQAPGKGLEWVGLIKRNAYGGTTEYAASVRGRFTISRDDSRSIAYLQMHSLKSEDTAVYFCLRGYSGYDWEGLDAFEVWGQGTMVTVSS
VL: DIQMTQSPSAMSASVGDRVTITCRASQGSSTYLAWFQQKPGKVPKRLIYAVSSLQSGVPSRFSGSGSGTEFTLTISSLQPEDSATYYCLQHNSFPLTFGQGTKVEIK
notes: expressed in 293T cells, Protein A purified; heavy chain about 50 kDa, light chain about 22 kDa; also called R66 antibody
Question: How did the binding turn out when B1 was run?
Answer: binds
